Some of the results follow. Small differences around the control level are noise.
These targets were tested with CN[C@@H]1C[C@H]2O[C@@](C)([C@@H]1OC)n1c3ccccc3c3c4c(c5c6ccccc6n2c5c31)C(=O)NC4 [staurosporine] (assay: log2 fold change of pooled soluble protein (PISA), ligand vs vehicle (log2 ratio); higher = more thermally stabilized). Settings: ligand concentration: 20 uM; assay format: PISA pool 52.9/55.5/58.6 C.

Amino acid sequences for entries named in this document (tags omitted). A change or cut given only in a name is not applied to a line headed by its entry.
UniProt Q60668: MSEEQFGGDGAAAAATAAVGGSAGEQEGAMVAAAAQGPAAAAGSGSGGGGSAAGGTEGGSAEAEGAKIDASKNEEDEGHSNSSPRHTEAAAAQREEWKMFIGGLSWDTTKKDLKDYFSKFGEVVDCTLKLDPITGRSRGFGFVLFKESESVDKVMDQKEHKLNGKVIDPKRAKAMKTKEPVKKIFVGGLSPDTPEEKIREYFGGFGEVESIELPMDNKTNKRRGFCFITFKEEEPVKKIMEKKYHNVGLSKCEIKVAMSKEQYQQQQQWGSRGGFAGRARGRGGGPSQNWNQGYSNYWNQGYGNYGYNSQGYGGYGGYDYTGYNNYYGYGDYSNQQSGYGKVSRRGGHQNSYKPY
UniProt Q61233: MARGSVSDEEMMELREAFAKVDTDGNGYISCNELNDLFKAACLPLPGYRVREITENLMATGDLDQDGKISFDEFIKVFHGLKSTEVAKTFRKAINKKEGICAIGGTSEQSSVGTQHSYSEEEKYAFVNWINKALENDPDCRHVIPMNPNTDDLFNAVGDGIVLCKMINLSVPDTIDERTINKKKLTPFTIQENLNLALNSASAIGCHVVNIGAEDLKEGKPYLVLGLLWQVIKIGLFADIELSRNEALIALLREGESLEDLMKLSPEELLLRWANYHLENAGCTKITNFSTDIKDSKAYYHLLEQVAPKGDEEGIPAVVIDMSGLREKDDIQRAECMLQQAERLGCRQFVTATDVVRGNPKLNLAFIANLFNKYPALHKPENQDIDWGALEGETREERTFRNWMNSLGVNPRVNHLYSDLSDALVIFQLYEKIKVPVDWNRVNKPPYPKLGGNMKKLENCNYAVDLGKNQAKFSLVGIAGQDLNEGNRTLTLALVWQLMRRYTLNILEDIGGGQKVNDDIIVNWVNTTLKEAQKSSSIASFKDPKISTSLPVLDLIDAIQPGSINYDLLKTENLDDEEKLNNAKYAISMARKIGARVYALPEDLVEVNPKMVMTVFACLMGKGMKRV
UniProt Q60872, whole entry: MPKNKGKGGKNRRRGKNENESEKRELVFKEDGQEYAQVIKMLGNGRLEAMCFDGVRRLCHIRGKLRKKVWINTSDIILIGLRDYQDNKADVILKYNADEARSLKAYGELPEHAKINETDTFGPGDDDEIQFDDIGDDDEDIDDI
UniProt Q61490: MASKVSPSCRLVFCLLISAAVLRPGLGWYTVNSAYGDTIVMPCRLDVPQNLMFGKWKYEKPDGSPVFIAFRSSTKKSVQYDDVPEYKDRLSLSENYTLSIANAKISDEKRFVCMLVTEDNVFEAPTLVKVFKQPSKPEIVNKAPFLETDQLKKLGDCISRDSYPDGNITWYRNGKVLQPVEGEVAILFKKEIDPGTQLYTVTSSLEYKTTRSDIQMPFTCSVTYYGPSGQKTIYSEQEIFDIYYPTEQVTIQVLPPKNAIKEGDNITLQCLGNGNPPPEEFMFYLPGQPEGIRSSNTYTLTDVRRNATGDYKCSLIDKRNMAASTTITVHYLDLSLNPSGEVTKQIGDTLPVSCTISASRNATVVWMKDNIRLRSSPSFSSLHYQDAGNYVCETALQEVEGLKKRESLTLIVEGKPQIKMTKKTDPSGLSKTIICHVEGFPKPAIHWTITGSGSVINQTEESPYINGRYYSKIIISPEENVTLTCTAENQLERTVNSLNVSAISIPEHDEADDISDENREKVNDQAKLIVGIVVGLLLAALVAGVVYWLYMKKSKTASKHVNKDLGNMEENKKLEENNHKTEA
UniProt Q69Z38: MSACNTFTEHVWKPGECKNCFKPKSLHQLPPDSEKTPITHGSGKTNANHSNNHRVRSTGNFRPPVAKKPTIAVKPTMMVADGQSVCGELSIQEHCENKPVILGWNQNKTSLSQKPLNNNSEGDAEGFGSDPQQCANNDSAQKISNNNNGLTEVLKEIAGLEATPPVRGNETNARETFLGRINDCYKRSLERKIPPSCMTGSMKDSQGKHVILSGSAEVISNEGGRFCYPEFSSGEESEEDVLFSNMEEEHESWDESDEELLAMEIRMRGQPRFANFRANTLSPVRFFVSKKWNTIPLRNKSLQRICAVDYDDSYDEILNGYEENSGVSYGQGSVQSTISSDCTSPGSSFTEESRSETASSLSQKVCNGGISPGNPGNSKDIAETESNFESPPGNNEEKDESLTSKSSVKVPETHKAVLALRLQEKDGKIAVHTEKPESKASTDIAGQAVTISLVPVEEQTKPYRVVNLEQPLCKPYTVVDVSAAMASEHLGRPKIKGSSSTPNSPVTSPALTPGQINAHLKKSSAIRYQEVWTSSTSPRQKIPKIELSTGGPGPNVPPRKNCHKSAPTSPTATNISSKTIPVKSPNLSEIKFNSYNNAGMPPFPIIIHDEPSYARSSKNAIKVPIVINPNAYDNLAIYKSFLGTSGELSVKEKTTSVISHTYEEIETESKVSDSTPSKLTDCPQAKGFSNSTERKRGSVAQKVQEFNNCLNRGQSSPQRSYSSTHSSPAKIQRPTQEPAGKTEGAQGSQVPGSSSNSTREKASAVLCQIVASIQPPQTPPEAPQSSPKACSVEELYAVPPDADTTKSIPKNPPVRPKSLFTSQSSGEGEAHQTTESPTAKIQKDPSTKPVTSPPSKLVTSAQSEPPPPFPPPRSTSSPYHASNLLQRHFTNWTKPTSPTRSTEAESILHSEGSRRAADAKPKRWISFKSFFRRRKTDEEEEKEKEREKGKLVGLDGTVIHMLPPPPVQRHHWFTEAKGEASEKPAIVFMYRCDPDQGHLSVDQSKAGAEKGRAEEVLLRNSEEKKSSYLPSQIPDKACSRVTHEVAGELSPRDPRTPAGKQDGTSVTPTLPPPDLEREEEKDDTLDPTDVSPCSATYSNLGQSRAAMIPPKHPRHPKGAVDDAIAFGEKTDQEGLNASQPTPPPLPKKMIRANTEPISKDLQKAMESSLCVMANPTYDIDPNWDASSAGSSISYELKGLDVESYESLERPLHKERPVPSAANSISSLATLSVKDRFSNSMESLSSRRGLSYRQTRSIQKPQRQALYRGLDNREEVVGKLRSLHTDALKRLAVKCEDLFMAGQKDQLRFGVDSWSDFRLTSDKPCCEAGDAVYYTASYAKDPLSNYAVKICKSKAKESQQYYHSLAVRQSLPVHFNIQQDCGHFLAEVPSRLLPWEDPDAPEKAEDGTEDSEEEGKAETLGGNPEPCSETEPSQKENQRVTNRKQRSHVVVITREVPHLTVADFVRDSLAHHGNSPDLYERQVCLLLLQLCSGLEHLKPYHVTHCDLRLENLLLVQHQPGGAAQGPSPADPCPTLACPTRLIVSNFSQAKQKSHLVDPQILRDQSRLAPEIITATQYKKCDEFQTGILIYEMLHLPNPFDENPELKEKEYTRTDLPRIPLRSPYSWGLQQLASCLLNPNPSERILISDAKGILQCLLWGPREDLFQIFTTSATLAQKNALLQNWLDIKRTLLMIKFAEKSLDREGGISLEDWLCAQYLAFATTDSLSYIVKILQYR
UniProt Q64471: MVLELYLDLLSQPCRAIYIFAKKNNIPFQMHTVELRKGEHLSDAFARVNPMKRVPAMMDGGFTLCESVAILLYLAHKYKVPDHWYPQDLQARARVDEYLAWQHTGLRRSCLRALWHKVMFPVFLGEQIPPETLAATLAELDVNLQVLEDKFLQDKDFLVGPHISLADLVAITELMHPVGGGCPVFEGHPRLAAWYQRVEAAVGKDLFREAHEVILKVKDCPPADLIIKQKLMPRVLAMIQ
UniProt Q64514: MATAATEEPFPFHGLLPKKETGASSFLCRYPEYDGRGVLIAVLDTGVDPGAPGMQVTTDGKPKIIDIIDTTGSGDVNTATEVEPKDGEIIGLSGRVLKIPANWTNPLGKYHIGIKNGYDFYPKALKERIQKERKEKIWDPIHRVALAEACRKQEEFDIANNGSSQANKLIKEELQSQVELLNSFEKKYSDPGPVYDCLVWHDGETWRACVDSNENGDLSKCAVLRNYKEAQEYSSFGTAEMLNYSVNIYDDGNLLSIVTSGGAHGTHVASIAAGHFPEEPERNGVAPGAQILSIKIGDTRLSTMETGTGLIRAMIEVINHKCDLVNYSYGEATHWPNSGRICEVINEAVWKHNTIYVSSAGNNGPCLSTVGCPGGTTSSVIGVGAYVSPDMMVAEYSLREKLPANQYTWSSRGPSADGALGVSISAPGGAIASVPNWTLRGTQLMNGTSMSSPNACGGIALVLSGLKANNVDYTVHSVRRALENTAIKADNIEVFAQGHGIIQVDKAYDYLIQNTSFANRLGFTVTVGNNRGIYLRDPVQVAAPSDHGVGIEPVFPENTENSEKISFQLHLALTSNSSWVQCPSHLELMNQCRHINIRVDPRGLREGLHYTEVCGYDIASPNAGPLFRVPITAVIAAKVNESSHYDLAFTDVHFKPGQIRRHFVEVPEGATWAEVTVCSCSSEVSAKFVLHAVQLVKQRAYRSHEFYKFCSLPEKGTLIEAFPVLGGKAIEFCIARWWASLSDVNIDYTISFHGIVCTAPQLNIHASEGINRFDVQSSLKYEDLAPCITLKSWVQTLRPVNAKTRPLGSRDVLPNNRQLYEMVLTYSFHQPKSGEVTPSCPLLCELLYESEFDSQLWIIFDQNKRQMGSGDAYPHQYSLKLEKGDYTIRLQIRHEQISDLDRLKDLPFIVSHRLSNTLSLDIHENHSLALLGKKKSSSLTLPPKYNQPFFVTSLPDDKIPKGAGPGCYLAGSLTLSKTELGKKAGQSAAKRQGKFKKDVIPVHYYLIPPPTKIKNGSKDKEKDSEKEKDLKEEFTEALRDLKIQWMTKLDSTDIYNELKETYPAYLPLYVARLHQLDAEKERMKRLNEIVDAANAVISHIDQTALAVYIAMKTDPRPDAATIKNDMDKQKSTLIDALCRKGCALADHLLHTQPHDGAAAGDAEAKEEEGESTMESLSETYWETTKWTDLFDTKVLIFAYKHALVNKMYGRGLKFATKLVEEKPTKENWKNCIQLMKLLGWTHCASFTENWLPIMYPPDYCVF
UniProt Q60749, whole entry: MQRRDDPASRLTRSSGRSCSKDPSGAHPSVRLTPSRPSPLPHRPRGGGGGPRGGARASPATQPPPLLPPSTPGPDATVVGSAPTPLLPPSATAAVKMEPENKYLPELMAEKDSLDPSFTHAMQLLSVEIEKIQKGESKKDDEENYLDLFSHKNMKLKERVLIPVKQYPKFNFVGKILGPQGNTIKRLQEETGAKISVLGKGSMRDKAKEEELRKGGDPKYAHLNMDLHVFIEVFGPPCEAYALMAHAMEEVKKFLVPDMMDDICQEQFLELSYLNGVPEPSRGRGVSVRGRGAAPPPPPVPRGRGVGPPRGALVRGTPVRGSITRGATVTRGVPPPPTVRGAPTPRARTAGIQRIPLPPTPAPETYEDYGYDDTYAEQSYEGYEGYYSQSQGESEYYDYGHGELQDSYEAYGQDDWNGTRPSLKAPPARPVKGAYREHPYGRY
UniProt Q62376, whole entry: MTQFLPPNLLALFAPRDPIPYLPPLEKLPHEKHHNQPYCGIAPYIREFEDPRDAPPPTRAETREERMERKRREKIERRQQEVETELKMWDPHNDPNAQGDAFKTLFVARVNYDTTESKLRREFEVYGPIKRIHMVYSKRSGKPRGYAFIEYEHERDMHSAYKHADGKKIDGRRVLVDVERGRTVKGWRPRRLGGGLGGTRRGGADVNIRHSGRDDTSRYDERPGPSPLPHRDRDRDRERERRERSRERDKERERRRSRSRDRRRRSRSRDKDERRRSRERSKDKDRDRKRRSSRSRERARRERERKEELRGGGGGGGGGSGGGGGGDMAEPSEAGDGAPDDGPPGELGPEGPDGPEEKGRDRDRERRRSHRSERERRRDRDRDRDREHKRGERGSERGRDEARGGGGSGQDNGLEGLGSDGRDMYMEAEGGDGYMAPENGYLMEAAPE
UniProt Q64433, whole entry: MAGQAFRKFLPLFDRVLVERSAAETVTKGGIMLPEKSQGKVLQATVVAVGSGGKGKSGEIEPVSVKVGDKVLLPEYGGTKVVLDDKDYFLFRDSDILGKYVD
UniProt Q62048, whole entry: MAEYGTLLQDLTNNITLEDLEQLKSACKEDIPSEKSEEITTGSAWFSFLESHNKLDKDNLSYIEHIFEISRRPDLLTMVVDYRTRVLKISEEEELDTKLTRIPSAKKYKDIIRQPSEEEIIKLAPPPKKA
UniProt Q64459: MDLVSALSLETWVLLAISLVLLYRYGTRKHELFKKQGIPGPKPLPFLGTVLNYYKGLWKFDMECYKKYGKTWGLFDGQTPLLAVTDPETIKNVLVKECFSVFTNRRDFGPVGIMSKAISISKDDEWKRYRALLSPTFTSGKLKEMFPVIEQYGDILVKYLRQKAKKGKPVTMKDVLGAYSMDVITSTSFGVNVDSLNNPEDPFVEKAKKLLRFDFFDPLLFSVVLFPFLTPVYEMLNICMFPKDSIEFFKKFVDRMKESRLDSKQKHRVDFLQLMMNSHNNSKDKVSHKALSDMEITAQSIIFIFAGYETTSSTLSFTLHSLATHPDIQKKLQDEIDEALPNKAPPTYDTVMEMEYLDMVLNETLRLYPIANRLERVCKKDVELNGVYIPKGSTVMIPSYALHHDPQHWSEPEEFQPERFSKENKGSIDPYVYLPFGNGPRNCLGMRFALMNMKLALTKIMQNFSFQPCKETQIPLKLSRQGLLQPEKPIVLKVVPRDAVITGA

Q: How did the “log2 fold change of pooled soluble protein” value (“log2 fold change” for short) turn out when UniProt Q61247 was run?
A: Its value is 0.127.

Q: With UniProt Q60668 as the target, how does the “log2 fold change” value read?
A: Its value is -0.0541.

Q: How did the “log2 fold change” value turn out when UniProt Q60967 was run?
A: Its value is -0.15.

Q: How did the “log2 fold change” value turn out when UniProt Q64314 was run?
A: The value was 0.419.

Q: With UniProt Q64462 as the target, how does the “log2 fold change” value read?
A: Its value is 0.0674.

Q: How did the “log2 fold change” value turn out when UniProt Q5U5V2 was run?
A: The value was 0.0941.

Q: For UniProt Q62086, which “log2 fold change” value is on record?
A: Its value is 0.0682.

Q: Which “log2 fold change” value does the source give for UniProt Q6DFV3 here?
A: The value was 0.0159.

Q: For UniProt Q66GT5, which “log2 fold change” value is on record?
A: Its value is -0.203.

Q: With UniProt Q6A065 as the target, how does the “log2 fold change” value read?
A: The value was -0.0575.

Q: For UniProt Q61233, which “log2 fold change” value is on record?
A: The value was 0.0288.

Q: How did the “log2 fold change” value turn out when UniProt Q60872 was run?
A: Its value is -0.18.

Q: For UniProt Q5SFM8, which “log2 fold change” value is on record?
A: Its value is -0.0558.

Q: How did the “log2 fold change” value turn out when UniProt Q64012 was run?
A: Its value is -0.123.

Q: How did the “log2 fold change” value turn out when UniProt Q61490 was run?
A: Its value is -0.00961.

Q: How did the “log2 fold change” value turn out when UniProt Q62179 was run?
A: Its value is -0.179.

Q: For UniProt Q69Z38, which “log2 fold change” value is on record?
A: Its value is 0.115.

Q: How did the “log2 fold change” value turn out when UniProt Q64471 was run?
A: The value was -0.0522.

Q: With UniProt Q64514 as the target, how does the “log2 fold change” value read?
A: The value was 0.0215.

Q: How did the “log2 fold change” value turn out when UniProt Q64520 was run?
A: Its value is 0.118.

Q: With UniProt Q62230 as the target, how does the “log2 fold change” value read?
A: Its value is -0.0664.

Q: Which “log2 fold change” value does the source give for UniProt Q61937 here?
A: The value was 0.0748.

Q: For UniProt Q64387, which “log2 fold change” value is on record?
A: The value was -0.514.

Q: With UniProt Q60749 as the target, how does the “log2 fold change” value read?
A: The value was 0.0439.

Q: With UniProt Q64735 as the target, how does the “log2 fold change” value read?
A: Its value is 0.0446.

Q: Which “log2 fold change” value does the source give for UniProt Q62376 here?
A: The value was -0.0118.

Q: Which “log2 fold change” value does the source give for UniProt Q60596 here?
A: Its value is 0.265.

Q: UniProt Q64727 was tested. Which “log2 fold change” value did it give?
A: The value was -0.071.

Q: With UniProt Q68FG3 as the target, how does the “log2 fold change” value read?
A: Its value is -0.0412.

Q: UniProt Q6GQT1 was tested. Which “log2 fold change” value did it give?
A: Its value is 0.167.

Q: For UniProt Q61102, which “log2 fold change” value is on record?
A: The value was 0.00635.

Q: With UniProt Q64433 as the target, how does the “log2 fold change” value read?
A: The value was -0.0634.

Q: Which “log2 fold change” value does the source give for UniProt Q61749 here?
A: The value was 0.226.

Q: Which “log2 fold change” value does the source give for UniProt Q62048 here?
A: Its value is 0.228.

Q: How did the “log2 fold change” value turn out when UniProt Q61508 was run?
A: Its value is 0.000811.

Q: Which “log2 fold change” value does the source give for UniProt Q64459 here?
A: Its value is 0.0364.

From the supplement of paper PMC12819154, “High-throughput peptide-centric local stability assay extends protein–ligand identification to membrane proteins, tissues and bacteria” (Nature Structural & Molecular Biology, 2025)
